Experimental data reported in PubChem BioAssay AID493014 (National Center for Advancing Translational Sciences (NCATS), 2011).
This is one part of the list. These are further read-outs of the screen, such as a control signal, another cell line or another target. No call is given for them. Compounds called inactive in the main read-out are mostly missing here. The note in brackets gives the kind of curve behind each potency; many fits are weak.

Assay: qHTS Assay to Find Inhibitors of Chronic Active B-Cell Receptor Signaling
Conditions: ABC-DLBCL IkBa-CBG/CBR reporter, luminescence ratio (green luciferase fused to IkBa over red control in TMD8 lymphoma cells), 4 h
Procedure, shortened: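 Concentration-response series (up to 46 uM) were applied to TMD8 dual-reporter cells for 4 h at 37C with doxycycline. Green/red ratio, after filter-overlap correction, defined %Activity; red signal alone was normalised to basal cells and zero luminescence.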

[1] = measured here: CBR red luminescence, cell number
[2] = measured here: IkBa-CBG green luminescence

Q: For `CSCC(C)N1CCC(n2nccc2NC(=O)c2ccc3c(c2)OCO3)CC1` (stereo unspecified), which AC50 [1] is on record?
A: 2.82 µM [rising, partial curve, poor fit]

Q: Which AC50 [1] does the source give for `C=CCN1C(=O)CSc2ccc(C(=O)NCCC3=CCCCC3)cc21` here?
A: 2.59 µM [rising, partial curve]

Q: For `CCC(CC)C(=O)Nc1cc(C(=O)NCCc2ccccc2)ccc1Cl`, which AC50 [1] is on record?
A: 3.16 µM [rising, single point]

Q: For `Cc1cccc(NC(=O)C2COc3ccccc3O2)n1` (stereo unspecified), which AC50 [1] is on record?
A: 0.562 µM [rising, full curve, poor fit]

Q: Which AC50 [1] does the source give for `Cc1ccc(-c2nn(-c3ccccc3)cc2/C=N/NS(=O)(=O)c2ccccc2)cc1` here?
A: 6.31 µM [rising, partial curve, poor fit]

Q: For `COC(=O)c1cccc(NC(=O)CSc2nnc(C)o2)c1`, which AC50 [1] is on record?
A: 8.91 µM [falling, partial curve, poor fit]

Q: For `COc1ccc(C(CC(=O)O)NC(=O)OC(C)(C)C)cc1` (stereo unspecified), which AC50 [1] is on record?
A: 29.1 µM [rising, single point]

Q: With `Cc1ccc(NC(=O)CCn2c(=O)[nH]c3ccsc3c2=O)cc1F` as the molecule, how does the AC50 [1] read?
A: 5.62 µM [falling, partial curve, poor fit]

Q: For `C/C(CC(=O)Nc1ccccn1)=N\NC(=O)C(=O)Nc1cccc(C)c1`, which AC50 [1] is on record?
A: 11.2 µM [falling, partial curve]

Q: For `O=C(Nc1ccccc1Cl)Nc1cccnc1Cl`, which AC50 [1] is on record?
A: 3.16 µM [falling, full curve]

Q: With `C/C(=N\NC(=O)c1sccc1-n1cccc1)c1cccs1` as the molecule, how does the AC50 [1] read?
A: 8.91 µM [rising, partial curve]

Q: For `Cc1cc(C)n2[nH]c(=O)c(N=Nc3ccccc3)c2n1`, which AC50 [1] is on record?
A: 1.84 µM [falling, partial curve, poor fit]

Q: For `COc1cccc(-c2cc(C(F)(F)F)nc(-n3cccn3)n2)c1`, which AC50 [1] is on record?
A: 13 µM [falling, partial curve, poor fit]

Q: For `Cc1ccc(C2N(c3ccc(Cl)c(Cl)c3)C(=O)C3CCCN32)o1` (stereo unspecified), which AC50 [1] is on record?
A: 2.31 µM [rising, partial curve, poor fit]

Q: Which AC50 [1] does the source give for `COc1cccc(CC(=O)n2nc(N)c3cc4ccc(OC)cc4nc32)c1` here?
A: 0.146 µM [falling, full curve]

Q: And the AC50 [2]?
A: 0.103 µM [rising, full curve, poor fit]

Q: For `CSc1nsc(SCC(=O)Nc2ccccc2F)n1`, which AC50 [1] is on record?
A: 3.98 µM [falling, partial curve]

Q: For `COc1ccccc1OCCn1nnc2ccccc21`, which AC50 [1] is on record?
A: 2.51 µM [rising, partial curve, poor fit]

Q: Which AC50 [1] does the source give for `CCOc1ccc(S(=O)(=O)NCc2ccccn2)cc1NC(=O)c1ccccc1` here?
A: 29.1 µM [rising, single point]

Q: And the AC50 [2]?
A: 18.4 µM [falling, single point]

Q: With `O=C(CSc1ncn[nH]1)Nc1nnc(-c2ccccc2)s1` as the molecule, how does the AC50 [1] read?
A: 1.46 µM [falling, partial curve]

Q: What about the AC50 [2] of the same molecule?
A: 23.1 µM [falling, partial curve, poor fit]

Q: Which AC50 [1] does the source give for `COc1ccc2c(c1)CCc1cc(C(=O)N3CCN(c4ccc(N5CCOCC5)nn4)CC3)sc1-2` here?
A: 32.6 µM [falling, single point]

Q: Which AC50 [1] does the source give for `Cc1ccc(NC(=O)C2CC3CCC2C3)c(Br)c1` (stereo unspecified) here?
A: 10 µM [rising, partial curve]

Q: For `CCOC(=O)c1ccc(NC(=S)NC(=O)C2CCCC2)cc1`, which AC50 [1] is on record?
A: 10 µM [rising, partial curve, poor fit]

Q: For `CCc1ccccc1NC(=O)CN1CCN(C(=O)CCC(=O)N2CCC(c3ccccc3)=N2)CC1`, which AC50 [1] is on record?
A: 32.6 µM [rising, partial curve, poor fit]

Q: Which AC50 [1] does the source give for `CCOc1ccccc1NC(=O)Cc1coc2cc(C)ccc12` here?
A: 0.092 µM [falling, full curve, poor fit]

Q: With `Cc1ccccc1NC(=S)N/N=C1\CC(C)(C)Oc2ccc(O)cc21` as the molecule, how does the AC50 [1] read?
A: 35.5 µM [falling, single point]

Q: With `CCn1c(SCC(=O)Nc2nccs2)nnc1-c1ccc(S(=O)(=O)N2CCCCCC2)cc1` as the molecule, how does the AC50 [1] read?
A: 20.6 µM [falling, single point]

Q: What does the source list for `CN(C)C(=S)N=Nc1[nH]c2ccccc2c1O`?
A: AC50 [1]: 5.62 µM [falling, single point]; AC50 [2]: 3.98 µM [falling, full curve]

Q: Which results are given for `Cc1cc(-c2ccccc2)c2c(=O)[nH][nH]c2n1`?
A: AC50 [1]: 32.6 µM [falling, single point]; AC50 [2]: 23.1 µM [rising, partial curve, poor fit]

Q: With `Cc1ccc(S(=O)(=O)NC2=NCN(CCOC(=O)c3ccccc3)CN2)cc1` as the molecule, how does the AC50 [1] read?
A: 4.11 µM [rising, partial curve, poor fit]

Q: Which results are given for `CCCC(=O)OCCNc1cc(Sc2nc3ccccc3[nH]2)c2nonc2c1[N+](=O)[O-]`?
A: AC50 [1]: 29.1 µM [falling, single point]; AC50 [2]: 32.6 µM [rising, single point]

Q: Which AC50 [1] does the source give for `CCS(=O)(=O)NCCNc1ccc([N+](=O)[O-])cc1` here?
A: 35.5 µM [rising, single point]

Q: Which AC50 [1] does the source give for `COC(=O)c1sc(NC(=O)CSc2n[nH]c(N)n2)c(C(=O)OC)c1C` here?
A: 10 µM [falling, partial curve, poor fit]

Q: Which AC50 [1] does the source give for `CCOC(=O)c1cccc(NC(=O)Nc2ccc(OCC)cc2)c1` here?
A: 35.5 µM [falling, single point]

Q: For `Cc1ccc(-c2cc(C(=O)N3CCN(c4ccccc4)CC3)c3ccccc3n2)cc1C`, which AC50 [1] is on record?
A: 0.251 µM [rising, full curve, poor fit]

Q: Which AC50 [1] does the source give for `Cc1cc(C(C)(C)C)cc(C)c1Cn1c2[n+](c3ccc(C(F)(F)F)cc31)CCCCC2` here?
A: 20 µM [falling, single point]

Q: With `O=C(NCCCN1CCOCC1)c1ccc2c(c1)N(Cc1cccc(F)c1)C(=O)c1ccccc1S2` as the molecule, how does the AC50 [1] read?
A: 20 µM [falling, partial curve, poor fit]

Q: With `CCSc1nnc(NC(=O)C(C)C)s1` as the molecule, how does the AC50 [1] read?
A: 32.6 µM [falling, single point]

Q: With `O=C(Nc1ccncc1)c1cc2ccccc2o1` as the molecule, how does the AC50 [1] read?
A: 10 µM [falling, partial curve]

Q: For `Cn1c(=O)[nH]c(=O)c2c1nc(SCC(N)=O)n2Cc1cccc(Br)c1`, which AC50 [1] is on record?
A: 14.1 µM [rising, partial curve]

Q: What about the AC50 [2] of the same molecule?
A: 14.1 µM [falling, partial curve]

Q: For `Cc1ccc(C(=O)CNc2ccc(Cl)cc2)cc1`, which AC50 [1] is on record?
A: 10 µM [falling, partial curve]

Q: With `COc1ccc(-c2nc3c(s2)CN(S(C)(=O)=O)CC3)cc1OC` as the molecule, how does the AC50 [1] read?
A: 14.1 µM [rising, partial curve]

Q: With `CCCOc1ccccc1NC(=O)/C=C/C(N)=O` as the molecule, how does the AC50 [1] read?
A: 23.1 µM [falling, partial curve]

Q: What about the AC50 [2] of the same molecule?
A: 23.1 µM [rising, partial curve, poor fit]

Q: Which AC50 [1] does the source give for `Cc1ccc(NCCCCO)cc1C` here?
A: 6.31 µM [rising, single point]

Q: With `C/C(=N\NC(=O)Cc1cccn1C)c1ccc2ccccc2c1` as the molecule, how does the AC50 [1] read?
A: 2.91 µM [rising, single point]

Q: For `COc1cc(NC(=O)C(C)Oc2ccccc2)cc(OC)c1` (stereo unspecified), which AC50 [1] is on record?
A: 7.94 µM [rising, partial curve]

Q: With `CC(C)C(=O)NNC(=O)c1csc(CS(=O)(=O)c2ccc(Cl)cc2)n1` as the molecule, how does the AC50 [1] read?
A: 22.4 µM [rising, single point]

Q: With `Cc1ccc(C(=O)OCC(=O)NCc2cccs2)cc1S(=O)(=O)N1CCOCC1` as the molecule, how does the AC50 [1] read?
A: 0.794 µM [rising, full curve, poor fit]

Q: Which AC50 [1] does the source give for `COc1ccc(S(=O)(=O)Nc2ccc(S(=O)(=O)N3CCCCC3)cc2)cc1OC` here?
A: 29.1 µM [rising, single point]

Q: For `C=C(C)COc1ccc(-c2nc(N)ncc2-c2ccc(Br)cc2)c(O)c1`, which AC50 [1] is on record?
A: 7.94 µM [rising, partial curve, poor fit]

Q: Which AC50 [1] does the source give for `O=c1oc2ccccc2c(CNc2ccccc2)c1[N+](=O)[O-]` here?
A: 8.91 µM [falling, partial curve]

Q: With `CCCCCC1CCC(c2n[nH]c(=S)n2C)CC1` (stereo unspecified) as the molecule, how does the AC50 [2] read?
A: 10 µM [falling, partial curve]

Q: With `Cc1cc(NC(=O)Nc2cccc(Cl)c2)n(C(C)(C)C)n1` as the molecule, how does the AC50 [1] read?
A: 35.5 µM [rising, single point]

Q: For `COc1cc(C(=O)Nc2ccc3c(c2)ncn3C)cc(OC)c1OC`, which AC50 [2] is on record?
A: 35.5 µM [falling, single point]

Q: For `O=C(O)C1CCCCC1C(=O)Nc1ccc(OCc2ccccc2)cc1` (stereo unspecified), which AC50 [1] is on record?
A: 11.2 µM [falling, partial curve, poor fit]

Q: Which AC50 [1] does the source give for `Cn1cnc2c(N/N=C/c3cccs3)ncnc21` here?
A: 10 µM [falling, partial curve]

Q: With `O=C(NC1=NCCS1)c1nc(-c2ccccc2)n(-c2ccccc2)n1` as the molecule, how does the AC50 [1] read?
A: 5.8 µM [falling, single point]

Q: For `Cc1ccc(NC(=O)CSc2nnc(-c3cccnc3)o2)c(C)c1`, which AC50 [1] is on record?
A: 20.6 µM [falling, partial curve, poor fit]

Q: With `COc1ccc(NC(=O)CNCCC2=CCCCC2)cc1` as the molecule, how does the AC50 [1] read?
A: 23.1 µM [rising, single point]

Q: For `CC(=O)NC(C(=O)OCC(=O)N(c1ccccc1)c1ccccc1)C(C)C` (stereo unspecified), which AC50 [1] is on record?
A: 11.2 µM [rising, single point]

Q: For `CCC1CCCCN1C(=S)NC1CCCCC1` (stereo unspecified), which AC50 [1] is on record?
A: 29.1 µM [rising, single point]

Q: Which AC50 [1] does the source give for `CCOC(=O)c1cnn2c(C(F)F)cc(C3CC3)nc12` here?
A: 4.11 µM [rising, full curve, poor fit]

Q: Which AC50 [1] does the source give for `O=S(=O)(Nc1ccc(-c2ccc3nncn3n2)cc1)c1cc(F)ccc1F` here?
A: 20.6 µM [rising, partial curve]

Q: For `CCOC(=O)N1CCC(NC(=O)c2ccc3c(Cl)c4c(nc3c2)CCCC4)CC1`, which AC50 [1] is on record?
A: 29.1 µM [falling, single point]
